Results are given in words; binding and its absence hold for the method and conditions named. Some binding calls cover weakened binding; strength is not graded here.
Biological target: mouse PRDM9 without zinc fingers (aa 1–511) fused to LexA (mouse) (UniProt Q96EQ9)
Assay: two-hybrid; screen by Hybrigenics; bait mouse PRDM9 aa 1–511 fused to LexA; mouse cDNA library from testes of 14–16 dpp mice

The chains behind the UniProt entries cited, without tags or fusion partners. Residues count along the entry.
UniProt Q96EQ9, residues 1-511: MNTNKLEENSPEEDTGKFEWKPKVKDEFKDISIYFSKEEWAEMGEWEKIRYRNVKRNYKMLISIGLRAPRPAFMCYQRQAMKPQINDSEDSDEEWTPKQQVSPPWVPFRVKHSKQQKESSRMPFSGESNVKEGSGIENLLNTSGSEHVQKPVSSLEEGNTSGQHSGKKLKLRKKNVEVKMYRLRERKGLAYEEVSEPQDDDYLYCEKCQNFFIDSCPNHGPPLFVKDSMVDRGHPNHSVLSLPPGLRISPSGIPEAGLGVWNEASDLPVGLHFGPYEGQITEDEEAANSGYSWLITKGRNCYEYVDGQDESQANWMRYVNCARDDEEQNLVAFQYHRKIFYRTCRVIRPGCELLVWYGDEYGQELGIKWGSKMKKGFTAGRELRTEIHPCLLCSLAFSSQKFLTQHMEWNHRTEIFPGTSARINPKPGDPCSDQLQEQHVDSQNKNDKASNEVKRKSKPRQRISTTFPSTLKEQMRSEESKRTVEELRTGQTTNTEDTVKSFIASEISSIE

binding: binds
B1: HELLS clones from the yeast two-hybrid screen (six clones that share residues 30 to 448 of HELLS) (domain or fragment, UniProt Q60848 30-448)
chain: RKMLEEAQKSWDRESTEIRYRRLQHLLEKSNIYSKFLLTKMEQQQLEEQKKKEKLEKKKRSLKLTEGKSLVDGNGEKPVMKKKRGREDESYNISEVMSKEEILSVAKKHKDNEDESSSTTSLCVEDIQKNKDSNSMIKDRLSQTVRQNSKFFFDPVRKCNGQPVPFQQPKHFTGGVMRWYQVEGMEWLRMLWENGINGILADEMGLGKTVQCIATIALMIQRGVPGPFLVCGPLSTLPNWMAEFKRFTPEIPTLLYHGTREDRRKLVKNIHKRQGTLQIHPVVVTSFEIAMRDQNALQHCYWKYLIVDEGHRIKNMKCRLIRELKRFNADNKLLLTGTPLQNNLSELWSLLNFLLPDVFDDLKSFESWFDITSLSETAEDIIAKEREQNVLHMLHQILTPFLLRRLKSDVALEVPPKRE
